Laboratory results from paper PMC9186531, “Biochemical and structural characterization of the flavodoxin-like domain of the Schizosaccharomyces japonicus putative tRNA ^Phe 4-demethylwyosine synthase Tyw1 in complex with FMN” (microPublication Biology, 2022).
Results are given in words; binding and its absence hold for the method and conditions named. Sequences can lack the tags named with a protein. Values belong to the binder of their own block, whether it stands above or below them.

Assays:
[1] = target: Schizosaccharomyces japonicus Tyw1 recombinant fragment 30-251 (Schizosaccharomyces japonicus) (UniProt B6K6D6); assay: AUC; sedimentation velocity, 60,000 RPM, 293 K, absorbance at 280 nm; 150 mM KCl, 20 mM NaCl, 2 mM MgCl2, 5% glycerol, 50 mM Hepes-NaOH pH 7.5, 0.5 mM 2-mercaptoethanol; c(S) analysis with SEDFIT; both purified
[2] = target: Schizosaccharomyces japonicus Tyw1 recombinant fragment 76-251 (Schizosaccharomyces japonicus) (UniProt B6K6D6); assay: as above

- binding [1]: no binding
B1: Schizosaccharomyces japonicus Tyw1 recombinant fragment 30-251 (domain or fragment, UniProt B6K6D6 30-251)
chain: KKLAKPEKIASATSLKGSTPKAPKVFRKTEKTKHSNRKIACEASTKSSRKLTDISACSINIFYSTLGGSTQKFAEHVADRIRSSLQTELVEILNLDYIDLDEYFSKGNSNTVYLVLLPSYAIESSIDYFLSALQTTIDDFRIVARPLEKLRGFAVLGFGDFEQYAGDLFCYQAIAADQRLAKLGAQRIAPLGVVNVKLEKAQVYEAMEAWTDLFLQYAKEKA

- binding [2]: no binding
B2: Schizosaccharomyces japonicus Tyw1 recombinant fragment 76-251 (domain or fragment, UniProt B6K6D6 76-251)
chain: SSRKLTDISACSINIFYSTLGGSTQKFAEHVADRIRSSLQTELVEILNLDYIDLDEYFSKGNSNTVYLVLLPSYAIESSIDYFLSALQTTIDDFRIVARPLEKLRGFAVLGFGDFEQYAGDLFCYQAIAADQRLAKLGAQRIAPLGVVNVKLEKAQVYEAMEAWTDLFLQYAKEKA
